# Several values for one entry are separate records, joined by “and”; a condition that tells them apart may be missing. Equal entries are not always repeated. About 7,700 (2.3%) of roughly 330,000 compounds were called active. The shares of active, inactive and inconclusive entries below differ from those in the screen. Calls come from the whole dose curve; as a rule, active = well fitted inhibition curve with a large enough effect; inconclusive = small, poorly fitted or top-dose-only effect, or effect the other way; inactive = flat fitted curve, though single readings scatter. Potencies of inconclusive entries are doubtful fits and often do not repeat.
# Experiment: qHTS screen for small molecules that inhibit ELG1-dependent DNA repair in human embryonic kidney (HEK293T) cells expressing luciferase-tagged ELG1; note: nearly all actives have a fitted effect of over 55% in size
# Details: HEK293T ELG1-luciferase reporter, luminescence, 16 h, DNA damage induced by 5-fluorouridine; series mostly up to 46.1 µM
# In short: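 Luminescence from the luciferase reporter, measured 30 min after ONE-Glo reagent at room temperature, was the read-out. Beforehand, 2,000 cells per well were exposed for 16 hr at 37 °C to 5-fluorouridine together with compound or vehicle.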
# Potency is the fitted concentration of half-maximal effect.
row,SMILES,Potency
1,OC(CNCCc1ccccc1)COc1ccc(OCC(O)CNCCc2ccccc2)cc1 (stereo not given),"inconclusive: 29.1 µM [inhibitor, single point]"
2,CCOCc1c(C(=O)NC2=Nc3ccccc3NC(CC)=C2C(=O)OCC)oc2ccccc12,active: 8.2 µM
3,CCOC(=O)c1c(C)[nH]c(C)c1C(=O)COC(=O)c1ccccc1O,"inconclusive: 32.6 µM [inhibitor, single point]"
4,Cc1ccc2c(c1)COc1c3ccc(C(=O)O)cc3nn1-2,"inconclusive: 0.366 µM [activator, partial curve, poor fit]"
5,Cc1oc(-c2cccs2)nc1CN1CCN(CC(C)C)C(CCO)C1 (stereo not given),inactive
6,O=C(Nc1ccc(N2CCOCC2)c(F)c1)c1cccs1,"inconclusive: 2.31 µM [activator, full curve]"
7,CCc1ccc(OCC(=O)NNC(=O)CNC(=O)c2ccc(Br)o2)cc1,inactive
8,CC(C)(C)OC(=O)NCc1ccc(CNC(=O)c2[nH]cnc2C(=O)NCC(=O)OCc2ccccc2)cc1,active: 8.2 µM
9,CC(C)C[C@H](NC(=O)OC(C)(C)C)c1n[nH]c(=S)n1N,inactive
10,Cc1ccc2nc(N3CCOCC3)c(C=O)c(=O)n2c1,"inconclusive: 20.6 µM [activator, partial curve, poor fit]"
11,COC(=O)[C@H](CCSC)NC(=O)Cn1cnc2c(OCc3ccccc3)ncnc21,"inconclusive: 18.3 µM [activator, single point]"
12,C=CCNC(=O)C1CCN(c2ccc(S(=O)(=O)N3CCOCC3)cc2Cl)CC1,"inconclusive: 29.1 µM [inhibitor, partial curve, poor fit]"
13,Cc1cccn2cc(CNc3ccccc3)nc12,"inconclusive: 20.6 µM [activator, partial curve]"
14,COc1cc(NC(=O)C2Cc3ccccc3CN2S(C)(=O)=O)cc(OC)c1 (stereo not given),inactive
15,O=C(Cc1cccs1)Nc1ccc(Cl)cc1,"inconclusive: 16.4 µM [activator, partial curve]"
16,CCN(C(=O)COC(=O)CNC(=O)c1ccc2ccccc2c1)C1CCS(=O)(=O)C1 (stereo not given),inactive
17,Cc1c(C(=O)Nc2ccccc2)sc2nc[nH]c(=O)c12,"inconclusive: 18.4 µM [activator, single point]"
18,S=c1[nH]nc(COc2ccccc2)n1/N=C/c1ccc(Br)cc1,inactive
19,COC(=O)CSc1nc(C)cc(Oc2ccccc2)n1,inactive
20,CCCCC(=O)Nc1ccc(NC(=O)C(C)C)cn1,"inconclusive: 20.6 µM [activator, partial curve]"
21,CCCCCCCCCCCCCCCCn1cc[n+](C)c1,active: 10.3 µM and active: 7.3 µM
22,COc1cc(OC)c(OC)cc1CN1CCN(c2ccc(F)cc2)CC1,inactive
23,CCOc1ccc(C(=O)OCC(=O)N(Cc2ccccc2)Cc2ccccc2)cc1OC,"inconclusive: 15.8 µM [inhibitor, single point]"
24,COCCNC(=S)Nc1ccccn1,inactive
25,Cc1[nH]c2ccc(F)cc2c1CCN(Cc1ccncc1)C(=S)Nc1cccc(F)c1,"inconclusive: 16.4 µM [inhibitor, single point]"

# A second format for some results above:
row	SMILES	Potency
22	COc1cc(OC)c(OC)cc1CN1CCN(c2ccc(F)cc2)CC1	inactive
23	CCOc1ccc(C(=O)OCC(=O)N(Cc2ccccc2)Cc2ccccc2)cc1OC	inconclusive: 15.8 µM [inhibitor, single point]

# Next part:

row,SMILES,Potency
1,COc1ccc(CCNC(=O)C2CCN(S(=O)(=O)c3ccc(F)cc3)CC2)cc1,inactive
2,CC1CCCCN1C(=O)CSc1nnc(-c2ccc(Cl)s2)o1 (stereo not given),"inconclusive: 11.2 µM [activator, partial curve, poor fit]"
3,CCC(=O)c1ccc(N2CCN(C(=O)c3cccc(F)c3)CC2)c(F)c1,"inconclusive: 16.4 µM [inhibitor, single point]"
4,Cn1cccc1/C=N\NC(=O)c1cncc(Br)c1,"inconclusive: 29.1 µM [activator, single point]"
5,COC(=O)[C@]1(C)N[C@H](CN(C)C(C)=O)[C@@H]2C(=O)N(Cc3ccccc3)C(=O)[C@@H]21,inactive
6,Cc1c(C(=O)NCCCN2CCCC2=O)oc2ccc(S(=O)(=O)N3CCOCC3)cc12,inactive
7,Cc1ccccc1-c1nnc(SCC(=O)NC2CCCCC2)o1,inactive
8,CCN(C[C@H]1N[C@@](CC)(C(=O)OC)[C@H]2C(=O)N(Cc3ccccc3)C(=O)[C@@H]12)C(=O)c1ccc(F)cc1,active: 16.4 µM
9,CCc1nnc(NC(=O)CSc2nc3ccccc3o2)s1,inactive
10,CCCCOc1ccc(C(=O)NCC(=O)NCC(c2ccc(OC)cc2)N2CCCC2)cc1 (stereo not given),inactive
11,O=C(CC1SC(N2CCCCC2)=NC1=O)Nc1cccc(C(=O)NCc2ccccc2)c1 (stereo not given),"inconclusive: 25.9 µM [inhibitor, partial curve, poor fit]"
12,COC(=O)c1ccccc1NC(=O)COC(=O)c1ccccc1N=Nc1ccc(N(C)C)cc1,"inconclusive: 29.1 µM [inhibitor, single point]"
13,O=C(c1cccc(F)c1)N1CCN(c2ccc([N+](=O)[O-])c3cccnc23)CC1,"inconclusive: 1.16 µM [activator, single point]"
14,COc1cccc2sc(NN)nc12,inactive
15,COc1cc(Cl)ccc1OCc1cc(C(=O)N[C@H]2CCCCNC2=O)no1,"inconclusive: 18.3 µM [activator, partial curve]"
16,COC(=O)c1c(NC(NC(=O)C(C)(C)C)C(Cl)(Cl)Cl)sc2c1CCC2 (stereo not given),inactive
17,Cc1cc(C)n(-c2ccc(S(=O)(=O)N3CCCC3)cc2[N+](=O)[O-])n1,inactive
18,O=C(Nc1ccc2[nH]ncc2c1)c1cccc(F)c1,"inconclusive: 29.1 µM [activator, single point]"
19,CNC(=O)c1c(NC(=O)c2ccc(S(=O)(=O)N3CCCC3)cc2)sc2c1CCN(C(C)C)C2,"inconclusive: 23.1 µM [inhibitor, single point]"
20,Cc1ccccc1-n1c(SCc2ccccn2)nc2n[nH]c(C)c2c1=N,"inconclusive: 11.2 µM [inhibitor, partial curve]"
21,COc1ccc(-c2cc(OC)c3c(C)oc(C)c3c(=O)c2)cc1OC,inactive
22,COCCN(Cc1cc2cc(C)cc(C)c2nc1Cl)C(=O)Nc1ccccc1,inactive
23,Cc1cc(N)n(-c2ccc(C)c(C)c2)n1,"inconclusive: 29.1 µM [activator, single point]"
24,O=C(Nc1ccccc1)c1ccc2ccccc2n1,"inconclusive: 8.2 µM [activator, partial curve]"
25,O=C(NCCS(=O)(=O)N1CCN(c2ccccc2F)CC1)C1CC(=O)N(c2ccccc2)C1 (stereo not given),inactive

# Another view of some results above:
row	SMILES	Potency
1	COc1ccc(CCNC(=O)C2CCN(S(=O)(=O)c3ccc(F)cc3)CC2)cc1	inactive
2	CC1CCCCN1C(=O)CSc1nnc(-c2ccc(Cl)s2)o1 (stereo not given)	inconclusive: 11.2 µM [activator, partial curve, poor fit]

# Remaining list, next part.

row,SMILES,Potency
1,COc1ccc(-n2c(N)c(C(=O)NCc3ccco3)c3nc4ccccc4nc32)cc1,inactive
2,CCC1Sc2ccccc2N(CC(=O)NC2CCCCC2)C1=O (stereo not given),inactive
3,COc1ccccc1-c1sc2ccccc2c1C#Cc1ccc(N(C)C)cc1,"inconclusive: 18.3 µM [activator, single point]"
4,NC(=O)CCN1CCN(C(=O)c2ccc3nc(Cc4cccc(Cl)c4)oc3c2)CC1,inactive
5,CN(C(=O)CSc1nc2c(c(=O)[nH]1)CCC2)c1ccccc1,"inconclusive: 10.3 µM [activator, partial curve]"
6,CN(C)c1ccc(N=Cc2nc(-c3ccccc3)oc2O)cc1,"inconclusive: 20.6 µM [activator, single point]"
7,Cc1cc(N2C(=O)C(O)=C(C(=O)c3ccc(C)o3)C2c2ccc([N+](=O)[O-])cc2)no1 (stereo not given),inactive
8,CC1CCc2sc(C(=O)NC(C)C3CCCO3)cc2C1 (stereo not given),"inconclusive: 9.2 µM [activator, partial curve]"
9,COC(=O)c1cccc(NC(=O)Nc2ccccc2OC)c1,"inconclusive: 29.1 µM [activator, single point]"
10,Cc1ccc(CNC(=O)CN2CCN(Cc3ccc(Cl)cc3)C2=O)cc1,"inconclusive: 18.4 µM [inhibitor, partial curve, poor fit]"
11,CN(C)S(=O)(=O)c1ccc(NC(=O)COc2ncnc3c2cnn3-c2ccccc2)cc1,inactive
12,CCc1ccccc1NC1=CC(=O)CC(C)(C)C1,inactive
13,CCN(CC)CCCNCC(=O)Nc1cc(C)on1,"inconclusive: 2.91 µM [activator, partial curve, poor fit]"
14,CN(C)C(=O)c1cc(C(=O)c2ccccc2Cl)c[nH]1,"inconclusive: 20.6 µM [activator, partial curve]"
15,COc1ccccc1CNC(=O)COC(=O)c1c(C)nn(-c2ccccc2)c1Cl,"inconclusive: 32.6 µM [inhibitor, single point]"
16,O=C(COC(=O)c1ccc2ncsc2c1)Nc1cc([N+](=O)[O-])ccc1Cl,"inconclusive: 29.1 µM [activator, single point]"
17,CCOC(=O)C1CCCN(C(=O)c2cc3nc(-c4cccc(OC)c4)cc(C(F)(F)F)n3n2)C1 (stereo not given),"inconclusive: 20 µM [inhibitor, single point]"
18,CSc1cccc(NC(=O)CN(C)S(=O)(=O)c2cnc[nH]2)c1,inactive
19,COc1ccc(C2(C)NC(=O)N(Cc3cc(Cl)cc4c3OCOC4)C2=O)cc1OC (stereo not given),"inconclusive: 16.4 µM [inhibitor, partial curve, poor fit]"
20,Cc1c(-c2ncn[nH]2)sc(C#N)c1-c1ccccc1,inactive
21,COc1ccc(C(CC(=O)Nc2ncccc2C)N2Cc3ccccc3C2=O)cc1 (stereo not given),inactive
22,Cc1nc(CSc2ccccc2)cc(=O)[nH]1,inactive
23,O=C1/C(=C/c2ccc(O)cc2)COc2ccccc21,"inconclusive: 18.3 µM [activator, partial curve]"
24,CCOC(=O)C1(CCOc2ccccc2)CCN(Cc2cc(OC)ccc2OC)CC1,"inconclusive: 25.9 µM [inhibitor, single point]"
25,O=C(Cc1ccccc1)Nc1nnc(-c2ccco2)s1,"inconclusive: 7.31 µM [activator, partial curve]"

# By substructure, the entries above containing bromine
row,SMILES,Potency
7,CCc1ccc(OCC(=O)NNC(=O)CNC(=O)c2ccc(Br)o2)cc1,inactive
18,S=c1[nH]nc(COc2ccccc2)n1/N=C/c1ccc(Br)cc1,inactive
4,Cn1cccc1/C=N\NC(=O)c1cncc(Br)c1,"inconclusive: 29.1 µM [activator, single point]"

# — PubChem BioAssay AID504467 (National Center for Advancing Translational Sciences (NCATS), 2011)
